From the supplement of paper PMC3334620
In all, about 33,000 sequences were measured (“E-score (-0.5 to 0.5)”: median about -0.0059, highest 2% from about 0.26 on). This is one part of the list.

Biological target: T1, Cin5 (UniProt P40917)
T1 sequence: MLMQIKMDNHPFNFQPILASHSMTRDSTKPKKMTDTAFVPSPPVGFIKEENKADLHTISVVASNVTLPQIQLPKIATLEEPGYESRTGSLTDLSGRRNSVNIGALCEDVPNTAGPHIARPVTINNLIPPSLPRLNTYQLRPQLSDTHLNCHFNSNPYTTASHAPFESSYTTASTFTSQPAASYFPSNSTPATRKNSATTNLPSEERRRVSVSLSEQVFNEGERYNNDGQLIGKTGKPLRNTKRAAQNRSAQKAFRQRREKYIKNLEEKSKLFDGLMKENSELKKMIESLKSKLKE
Assay: PBM E-score (8-mer binding enrichment) (E-score (-0.5 to 0.5)); higher = stronger / more preferred TF binding
Settings: protein concentration: 100 nM; construct: GST-full length
Method in brief: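 Universal all-10-mer Agilent arrays, double-stranded by primer extension on fresh or once-stripped slides, were probed with about 100-200 nM GST-tagged yeast transcription factors made by PURExpress. Fluorescent anti-GST detected bound protein, and masliner normalised the scans. E-scores from the Universal PBM Analysis Suite were given to each ungapped eight-base word pooled with its reverse complement.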

| Sequence | PBM E-score |
| --- | --- |
| CCATTTTC | 0.108 |
| AAGCTCGA | 0.0447 |
| ACTGTTAC | 0.107 |
| CAGTGAAA | 0.144 |
| ATGTCTGA | -0.0325 |
| ATGTCGTG | -0.113 |
| AGTTATAA | 0.0215 |
| CTAATTCA | 0.0323 |
| CGTACAAG | -0.105 |
| CGCATGTA | -0.128 |
| ACCGCCAG | 0.00975 |
| GAAAGTAA | 0.014 |
| AAGTGACG | -0.00882 |
| ACATCGGT | -0.157 |
| AAGAGCAA | -0.0829 |
| CCCATAGA | -0.0678 |
| GTGCGCAC | 0.15 |
| CGCTAAAA | 0.0258 |
| AATGACAT | 0.149 |
| TAAAGTAA | 0.153 |
| ACCTCAAG | 0.00049 |
| CATTGAAC | 0.0943 |
| CTTGACCC | -0.107 |
| AGATCAGG | -0.207 |
| GTTCTATA | 0.103 |

| Sequence | PBM E-score |
| --- | --- |
| CTTCATGC | 0.011 |
| AGCGTCAC | -0.173 |
| GAGTCGAA | 0.0501 |
| ATGATTCC | 0.21 |
| CCCCCCTA | -0.378 |
| CGCATATA | -0.0438 |
| GGCGCGTA | -0.042 |
| GATATTCC | 0.0678 |
| TATGCACA | 0.154 |
| ACTTTACC | 0.159 |
| TGGGATAA | 0.0119 |
| TCCTAGGA | -0.0366 |
| CCTGATAG | -0.0617 |
| ATCGGTCC | -0.118 |
| GTCTCGGA | -0.0676 |
| AGGCTTGC | -0.244 |
| AGAGCTCG | -0.0777 |
| CTTCAGGA | -0.0963 |
| AGTCAAAA | -0.00519 |
| CCAGCATA | 0.0172 |
| ACACTTCA | 0.0375 |
| CTGGAAAA | 0.0379 |
| CTAGTTAA | 0.196 |
| CTGCGGAC | -0.243 |
| ACTGCAGA | -0.133 |

Two consecutive records out of the list so far, for reference:

| Sequence | PBM E-score |
| --- | --- |
| CTGCGGAC | -0.243 |
| ACTGCAGA | -0.133 |

(listing goes on)

| Sequence | PBM E-score |
| --- | --- |
| AACTCGGC | 0.121 |
| GGGTCCAC | -0.345 |
| ACCACAGC | -0.105 |
| CAGGGGTC | -0.113 |
| CCTCGTCG | -0.0293 |
| TGGAGCCA | -0.184 |
| AGATAGGC | 0.0182 |
| TACTAAGA | 0.159 |
| AAGACTGG | -0.0902 |
| CGACAGAG | -0.0762 |
| CGAGTCCG | -0.0724 |
| GGAGCAGA | -0.0793 |
| AGAAGGTC | 0.124 |
| GCCGAGGA | 0.0418 |
| GAGGTGGA | -0.266 |
| ACCGAAGG | -0.0714 |
| AGAAGTAT | 0.208 |
| CGCGTAGA | 0.163 |
| AGCACGGG | -0.0799 |
| CATACCTA | 0.0379 |
| ACGTGCCG | -0.117 |
| CAATAGAG | -0.0705 |
| TCGTGACA | -0.0894 |
| CCCCCGGG | -0.313 |
| TAGATTGA | 0.0852 |

| Sequence | PBM E-score |
| --- | --- |
| CCATATCG | 0.128 |
| ACTAAGCC | 0.17 |
| CCTTATAG | -0.0207 |
| ACCCTTCA | -0.0414 |
| TCTCCCCA | 0.0223 |
| GGCCGGTA | -0.0213 |
| TAAGGGTA | -0.0583 |
| ATGCCGGA | -0.149 |
| CAATAACC | 0.116 |
| GAAACAGA | 0.0464 |
| TACCCACA | 0.0586 |
| CTGCCGGC | -0.126 |
| GTGGAACA | 0.0035 |
| GGGGTCAC | -0.128 |
| AACTACTT | 0.142 |
| CAAGCGGG | -0.11 |
| AGAAATTA | 0.213 |
| CAACGAAC | 0.103 |
| AGAGGAGA | -0.363 |
| CACAGGTA | 0.0741 |
| CTACCTAC | 0.104 |
| CACCTTGG | -0.112 |
| ACGTGGGC | -0.156 |
| GCAGGCTA | -0.195 |
| CTGCCGGA | 0.0162 |

| Sequence | PBM E-score |
| --- | --- |
| ATTTCCGG | 0.243 |
| ATCTTCAG | 0.107 |
| GTGTGGCA | -0.0538 |
| AAATTGGT | 0.159 |
| AACCGAAT | 0.106 |
| ATCTGTCA | 0.162 |
| GCAAGTAA | 0.176 |
| CTCGATTC | 0.119 |
| ATTACGCC | 0.0314 |
| ATGGCTTC | -0.0948 |
| ACTGAGAC | -0.137 |
| CTGCGAGC | 0.0862 |
| AAATATCC | 0.0468 |
| ACGCCGAC | 0.0337 |
| TCGGTTAA | 0.128 |
| CGGGTGGA | 0.029 |
| ATGCCGAG | -0.0931 |
| CCGGCTCA | 0.0475 |
| ATACCTTC | 0.0246 |
| TGGTTACA | -0.035 |
| ACCAGAAG | -0.0829 |
| ACAGACTA | -0.0705 |
| ACCTTCAG | -0.0671 |
| CAGGCCGC | -0.205 |
| GTAAATTA | 0.192 |

| Sequence | PBM E-score |
| --- | --- |
| AAGGCGCG | -0.135 |
| ATTCCAAT | 0.115 |
| ATGCAATC | 0.113 |
| CGTATGAA | 0.188 |
| ATGGACTA | 0.0277 |
| AAACCCGC | 0.0832 |
| CTTCTTTA | 0.0259 |
| CACACGAA | 0.141 |
| CCTATGGC | -0.0304 |
| AAACGGTC | -0.0402 |
| AGAATGGG | -0.00374 |
| GGCCGAAA | 0.129 |
| CTCCTTGC | -0.0389 |
| AACGAAGA | 0.0871 |
| GCGGTAAC | -0.0129 |
| AAGATCGG | -0.0731 |
| AAAACGTG | 0.0002 |
| GCCGCGCA | -0.145 |
| ACTCAGGA | -0.0204 |
| GGCCGCAC | -0.126 |
| GATGTAAA | 0.13 |
| TCGTAACA | 0.0155 |
| AATCCCGT | 0.255 |
| ATTACGGA | 0.322 |
| GGAAAAGA | 0.0239 |

Fetched one by one from above:

| Sequence | PBM E-score |
| --- | --- |
| GGCCGCAC | -0.126 |
| ATTACGGA | 0.322 |
| CACACGAA | 0.141 |
| ATGGACTA | 0.0277 |
| TCGTAACA | 0.0155 |

Next part.

| Sequence | PBM E-score |
| --- | --- |
| AGGATCTA | -0.272 |
| CCCTTAGC | -0.157 |
| CGTTAAAC | 0.115 |
| CACTAAAA | 0.139 |
| TATGATCA | 0.175 |
| GATCCGAA | 0.11 |
| AGAGGTAA | -0.0621 |
| ATGGAACA | -0.0505 |
| AGGGAAAC | -0.227 |
| ATAACAAG | 0.243 |
| AAAGGTAA | -0.00617 |
| CCTACAGG | -0.33 |
| CCAGCCCG | -0.177 |
| TCTTTCCA | -0.00712 |
| CTCCGGAA | -0.0124 |
| ACTATCCG | 0.188 |
| GACTACGC | -0.238 |
| ATATTTGG | 0.171 |
| CGATGGAC | -0.0148 |
| AATTCAAC | 0.181 |
| GGGCAGAC | -0.263 |
| CACCGGCC | -0.307 |
| CTCACTGA | 0.00932 |
| AATCGGCA | 0.209 |
| CAAAAGAG | 0.00829 |

| Sequence | PBM E-score |
| --- | --- |
| GGCAGTGA | -0.185 |
| AAAAGTTA | 0.128 |
| GCGTACGC | -0.247 |
| ACTTTCGA | 0.108 |
| GGCTGTGA | -0.161 |
| GAGCAACC | 0.0325 |
| ATTAGACG | 0.157 |
| ATTGAATA | 0.277 |
| CGAACGGC | -0.163 |
| ATTATGAG | 0.11 |
| ATCCACAG | 0.107 |
| AGTCTTCA | -0.131 |
| AGTAGGGG | 0.112 |
| AAAGTTGT | 0.241 |
| AACGAGGC | -0.198 |
| GATTGCCA | 0.0218 |
| AACCAAAT | 0.0972 |
| CTGCGTTA | -0.136 |
| GCATGACA | -0.115 |
| CTTCGGCC | -0.122 |
| ATAGACAT | -0.064 |
| GGAGACCC | -0.205 |
| CGGCTGCC | -0.0174 |
| ACGGGCCG | -0.158 |
| AGGATGTG | 0.114 |

Some of the entries so far, bar-delimited:
Sequence | PBM E-score
AAAGTTGT | 0.241
AACGAGGC | -0.198
GATTGCCA | 0.0218

Next part

| Sequence | PBM E-score |
| --- | --- |
| TCCAGTCA | -0.124 |
| GATTTAGC | 0.0167 |
| ATTTACTC | 0.151 |
| TAAACCAA | -0.0103 |
| AGCGTAAT | 0.13 |
| AGGTCGGA | -0.0427 |
| TGCTTAAA | 0.102 |
| GCCCTTCA | -0.229 |
| CATGTATC | 0.149 |
| CCAACGGG | -0.0861 |
| CGGTATCA | 0.0856 |
| GACGTCCC | -0.0301 |
| AGAACATG | 0.0594 |
| AGGTGGCC | -0.23 |
| CACAAGGG | -0.229 |
| ACACAGGT | -0.044 |
| ATAAGTAG | 0.0735 |
| AGTGGGAC | -0.132 |
| ATGCGAAA | 0.138 |
